Measured values as given in patent US20190142971A1, “FORMULATION AND DELIVERY OF MODIFIED NUCLEOSIDE, NUCLEOTIDE, AND NUCLEIC ACID COMPOSITIONS” (ModernaTX, Inc., priority 2013, published 2019).
Some results were stated once for a whole list of compounds, not compound by compound.

Tested on: mice
Experiment: Example 19A: LNP IV in mice, serum EPO/G-CSF ELISA (Table 36)
Format: in vivo
Description: Formulations, listed in Table 33, were characterized by particle size, zeta potential, and encapsulation.
LNP formulations, shown in Table 33 (above), were administered to mice (n=4) intravenously (IV) at a single modified mRNA dose 0.05 mg/kg or 0.005 mg/kg. There was also 3 control groups of mice (n=4) that were untreated. The mice were bled at 2 hours, 8 hours, 24 hours, 48 hours and 72 hours after they were administered with G-CSF or EPO modified mRNA formulations to determine the protein expression. Protein expression of G-CSF and EPO were determined using ELISA.

B1: EPO: modified mRNA encoding human erythropoietin, SEQ ID NO: 7, Cap1, fully modified with 5-methylcytosine and pseudouridine; LNP NPA-060-1 in Examples 17-22 (nucleic acid)
chain: GGGAAAUAAGAGAGAAAAGAAGAGUAAGAAGAAAUAUAAGAGCCACCAUGGGAGUGCACGAGUGUCCCGCGUGGUUGUGGUUGCUGCUGUCGCUCUUGAGCCUCCCACUGGGACUGCCUGUGCUGGGGGCACCACCCAGAUUGAUCUGCGACUCACGGGUACUUGAGAGGUACCUUCUUGAAGCCAAAGAAGCCGAAAACAUCACAACCGGAUGCGCCGAGCACUGCUCCCUCAAUGAGAACAUUACUGUACCGGAUACAAAGGUCAAUUUCUAUGCAUGGAAGAGAAUGGAAGUAGGACAGCAGGCCGUCGAAGUGUGGCAGGGGCUCGCGCUUUUGUCGGAGGCGGUGUUGCGGGGUCAGGCCCUCCUCGUCAACUCAUCACAGCCGUGGGAGCCCCUCCAACUUCAUGUCGAUAAAGCGGUGUCGGGGCUCCGCAGCUUGACGACGUUGCUUCGGGCUCUGGGCGCACAAAAGGAGGCUAUUUCGCCGCCUGACGCGGCCUCCGCGGCACCCCUCCGAACGAUCACCGCGGACACGUUUAGGAAGCUUUUUAGAGUGUACAGCAAUUUCCUCCGCGGAAAGCUGAAAUUGUAUACUGGUGAAGCGUGUAGGACAGGGGAUCGCUGAUAAGCUGCCUUCUGCGGGGCUUGCCUUCUGGCCAUGCCCUUCUUCUCUCCCUUGCACCUGUACCUCUUGGUCUUUGAAUAAAGCCUGAGUAGGAAG
modifications: Cap1, 5-methylcytosine, pseudouridine
protein expression detectable out to (0.005 mg/kg): ≥ 48 h
protein expression detectable out to (0.05 mg/kg): ≥ 72 h

B2: G-CSF: modified mRNA encoding human G-CSF, SEQ ID NO: 4, Cap1, fully modified with 5-methylcytosine and pseudouridine; LNP-formulated in Examples 16-22 (nucleic acid)
chain: GGGAAAUAAGAGAGAAAAGAAGAGUAAGAAGAAAUAUAAGAGCCACCAUGGCCGGUCCCGCGACCCAAAGCCCCAUGAAACUUAUGGCCCUGCAGUUGCUGCUUUGGCACUCGGCCCUCUGGACAGUCCAAGAAGCGACUCCUCUCGGACCUGCCUCAUCGUUGCCGCAGUCAUUCCUUUUGAAGUGUCUGGAGCAGGUGCGAAAGAUUCAGGGCGAUGGAGCCGCACUCCAAGAGAAGCUCUGCGCGACAUACAAACUUUGCCAUCCCGAGGAGCUCGUACUGCUCGGGCACAGCUUGGGGAUUCCCUGGGCUCCUCUCUCGUCCUGUCCGUCGCAGGCUUUGCAGUUGGCAGGGUGCCUUUCCCAGCUCCACUCCGGUUUGUUCUUGUAUCAGGGACUGCUGCAAGCCCUUGAGGGAAUCUCGCCAGAAUUGGGCCCGACGCUGGACACGUUGCAGCUCGACGUGGCGGAUUUCGCAACAACCAUCUGGCAGCAGAUGGAGGAACUGGGGAUGGCACCCGCGCUGCAGCCCACGCAGGGGGCAAUGCCGGCCUUUGCGUCCGCGUUUCAGCGCAGGGCGGGUGGAGUCCUCGUAGCGAGCCACCUUCAAUCAUUUUUGGAAGUCUCGUACCGGGUGCUGAGACAUCUUGCGCAGCCGUGAAGCGCUGCCUUCUGCGGGGCUUGCCUUCUGGCCAUGCCCUUCUUCUCUCCCUUGCACCUGUACCUCUUGGUCUUUGAAUAAAGCCUGAGUAGGAAG
modifications: Cap1, 5-methylcytosine, pseudouridine
protein expression detectable out to (0.005 mg/kg): ≥ 48 h
protein expression detectable out to (0.05 mg/kg): ≥ 72 h
